PubChem BioAssay AID1259258, Sanger Institute | 2017
The deposit covers 160 reagents; this is a random part of them. In the full data, 40 (25%) were called active. 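Each row is one of four siRNAs per gene; a gene counts as confirmed only when several of its siRNAs show synergy.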 The numbers tell different reagents against one gene apart. Viability is capped at 1. Not given: the amount of reagent, the time to read-out.

Test: 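Kinase silencing that boosts cell killing by anchor cancer drugs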 (follow-up of hits)
Cells: human SW48 colorectal cancer cells
Knock-down reagent: single siRNA against human genes
Conditions: anchor drug cetuximab 5 µg/ml, trametinib 10 nM or BYL719 1 µM, or DMSO vehicle alone; assay length not stated
Measurement: 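Synergy score per drug compares siRNA-plus-drug effect with each agent alone; viability, relative to non-targeting pool 2 and replicate-averaged, uses DMSO, cetuximab 5 µg/ml, trametinib 10 nM or BYL719 1 µM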
Reading the numbers: synergy score with trametinib and synergy score with BYL719 and synergy score with cetuximab: higher = stronger synergy, more killing than expected; viability with siRNA and DMSO only and viability with siRNA plus trametinib: higher = more viable cells
Active means: 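Any one of the three anchor drugs giving a synergy value over 0.10 makes the siRNA a hit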

The first 4 entries, ahead of the listing:
target	siRNA no.	synergy score with trametinib	synergy score with BYL719	synergy score with cetuximab	viability with siRNA and DMSO only (fraction of control)	viability with siRNA plus trametinib (fraction of control)	activity call
IKBKB (GeneID 3551)	1	0.142	-0.164	-0.0455	1	0.449	active
IKBKB (GeneID 3551)	2	-0.0544	-0.112	-0.0362	1	0.646	inactive
IKBKB (GeneID 3551)	3	-0.00418	-0.13	0.0429	1	0.596	inactive
IKBKB (GeneID 3551)	4	-0.0623	-0.0925	-0.137	0.759	0.511	inactive

Main list, from the first entry:
target	siRNA no.	synergy score with trametinib	synergy score with BYL719	synergy score with cetuximab	viability with siRNA and DMSO only (fraction of control)	viability with siRNA plus trametinib (fraction of control)	activity call
IKBKB (GeneID 3551)	1	0.142	-0.164	-0.0455	1	0.449	active
IKBKB (GeneID 3551)	2	-0.0544	-0.112	-0.0362	1	0.646	inactive
IKBKB (GeneID 3551)	3	-0.00418	-0.13	0.0429	1	0.596	inactive
IKBKB (GeneID 3551)	4	-0.0623	-0.0925	-0.137	0.759	0.511	inactive
KCNH8 (GeneID 131096)	1	0.0059	-0.065	-0.0964	0.809	0.473	inactive
KCNH8 (GeneID 131096)	2	0.079	0.0742	0.0769	0.586	0.268	inactive
KCNH8 (GeneID 131096)	3	0.142	-0.014	-0.0816	0.907	0.394	active
KCNH8 (GeneID 131096)	4	0.032	-0.0251	0.0318	0.623	0.336	inactive
NR2F2 (GeneID 7026)	1	0.0222	-0.085	-0.169	0.669	0.374	inactive
NR2F2 (GeneID 7026)	2	-0.11	-0.134	-0.00677	1	0.702	inactive
NR2F2 (GeneID 7026)	3	-0.0759	-0.0113	-0.0578	0.964	0.646	inactive
NR2F2 (GeneID 7026)	4	0.181	0.0641	-0.105	0.669	0.215	active
GRK5 (GeneID 2869)	1	-0.0534	0.0259	-0.0362	1	0.645	inactive
GRK5 (GeneID 2869)	2	-0.273	-0.163	-0.136	1	0.865	inactive
GRK5 (GeneID 2869)	3	0.274	0.106	0.242	0.889	0.252	active
GRK5 (GeneID 2869)	4	-0.0291	0.0309	0.0488	1	0.621	inactive
ACVR1 (GeneID 90)	1	-0.306	-0.305	-0.257	1	0.898	inactive
ACVR1 (GeneID 90)	2	-0.0545	-0.0615	-0.112	1	0.646	inactive
ACVR1 (GeneID 90)	3	-0.225	-0.316	-0.274	1	0.816	inactive
ACVR1 (GeneID 90)	4	0.0191	-0.114	-0.212	1	0.572	inactive
SF3B1 (GeneID 23451)	1	-0.0515	-0.063	-0.0138	0.424	0.302	inactive
SF3B1 (GeneID 23451)	2	-0.00341	-0.0603	-0.0747	0.398	0.239	inactive
SF3B1 (GeneID 23451)	3	0.0759	-0.0739	-0.062	0.635	0.3	inactive
SF3B1 (GeneID 23451)	4	0.0604	-0.0659	-0.0115	0.49	0.229	inactive
PIK3CA (GeneID 5290)	1	0.251	-0.0603	0.132	0.896	0.279	active
PIK3CA (GeneID 5290)	2	0.0113	-0.163	-0.0442	0.595	0.341	inactive
PIK3CA (GeneID 5290)	3	0.205	-0.0718	0.028	0.727	0.225	active
PIK3CA (GeneID 5290)	4	-0.0832	-0.292	0.0328	0.844	0.582	inactive
SYNCRIP (GeneID 10492)	1	0.0287	0.131	0.0379	1	0.563	active
SYNCRIP (GeneID 10492)	2	-0.0282	0.0094	-0.12	0.931	0.579	inactive
SYNCRIP (GeneID 10492)	3	0.119	-0.00978	0.00327	0.424	0.132	active
SYNCRIP (GeneID 10492)	4	-0.00274	-0.0421	0.0446	0.853	0.507	inactive
AK2 (GeneID 204)	1	0.11	-0.0511	0.166	1	0.481	active
AK2 (GeneID 204)	2	0.0443	0.00619	-0.0694	0.887	0.48	inactive
AK2 (GeneID 204)	3	-0.0893	-0.167	-0.274	1	0.681	inactive
AK2 (GeneID 204)	4	0.0886	0.0432	-0.0386	1	0.503	inactive
